Laboratory results published in article PMC11660501.
Results are given in words; binding and its absence hold for the method and conditions named. In cells and extracts the contact can be indirect. Some results given as binding are weak or reduced against the parent protein; the word gives no strength.

Sequences of proteins named here, by UniProt entry; tags and fusion partners are left off. Residues count along the entry.
UniProt P35869, residues 11-848: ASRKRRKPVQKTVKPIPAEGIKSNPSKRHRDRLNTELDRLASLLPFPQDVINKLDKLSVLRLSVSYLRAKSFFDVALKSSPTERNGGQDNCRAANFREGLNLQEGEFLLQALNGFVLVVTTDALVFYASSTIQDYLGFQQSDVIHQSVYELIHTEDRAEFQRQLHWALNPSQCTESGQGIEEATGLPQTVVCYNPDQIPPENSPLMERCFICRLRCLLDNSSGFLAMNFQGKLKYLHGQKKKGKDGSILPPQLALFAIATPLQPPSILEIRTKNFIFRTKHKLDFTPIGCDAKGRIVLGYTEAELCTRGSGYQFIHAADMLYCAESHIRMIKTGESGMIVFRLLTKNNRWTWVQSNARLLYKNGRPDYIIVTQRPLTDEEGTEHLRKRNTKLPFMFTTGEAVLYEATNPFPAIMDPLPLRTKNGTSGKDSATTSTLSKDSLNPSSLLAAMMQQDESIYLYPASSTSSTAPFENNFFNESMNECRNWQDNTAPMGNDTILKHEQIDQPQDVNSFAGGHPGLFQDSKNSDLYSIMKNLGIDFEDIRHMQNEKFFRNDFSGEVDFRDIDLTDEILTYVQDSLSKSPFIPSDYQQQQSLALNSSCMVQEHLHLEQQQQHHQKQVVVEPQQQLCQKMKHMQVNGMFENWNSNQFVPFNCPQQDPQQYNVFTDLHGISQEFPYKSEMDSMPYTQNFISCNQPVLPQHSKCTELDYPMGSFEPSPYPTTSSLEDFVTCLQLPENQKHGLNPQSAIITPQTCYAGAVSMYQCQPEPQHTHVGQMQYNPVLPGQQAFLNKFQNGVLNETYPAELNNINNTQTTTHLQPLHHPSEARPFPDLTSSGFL
UniProt Q04206: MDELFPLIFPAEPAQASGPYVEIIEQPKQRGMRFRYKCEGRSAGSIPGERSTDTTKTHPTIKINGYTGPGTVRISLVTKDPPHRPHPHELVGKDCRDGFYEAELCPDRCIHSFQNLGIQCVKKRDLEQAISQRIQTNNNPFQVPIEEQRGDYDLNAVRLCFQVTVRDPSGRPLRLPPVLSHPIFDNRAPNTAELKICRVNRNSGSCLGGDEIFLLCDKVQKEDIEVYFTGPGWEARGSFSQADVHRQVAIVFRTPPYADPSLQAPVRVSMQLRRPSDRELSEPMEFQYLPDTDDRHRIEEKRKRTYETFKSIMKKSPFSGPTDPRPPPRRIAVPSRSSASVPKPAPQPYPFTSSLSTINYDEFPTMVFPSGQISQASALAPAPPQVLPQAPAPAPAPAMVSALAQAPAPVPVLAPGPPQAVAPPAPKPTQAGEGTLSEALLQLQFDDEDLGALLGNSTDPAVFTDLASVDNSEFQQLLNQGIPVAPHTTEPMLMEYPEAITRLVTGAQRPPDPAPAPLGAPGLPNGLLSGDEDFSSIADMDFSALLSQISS

Target: aryl hydrocarbon receptor (human (endogenous in HMC-1)) (UniProt P35869)
Assay: co-IP; nuclear fraction of HMC-1 cells treated with vehicle or DEP (10 μg/mL); lysed in pull-down buffer; immunoprecipitated with antibody against p65 or AhR and protein A/G magnetic beads at 4 °C overnight; western blot for AhR or p65

Substance: p65 (NF-κB) (from UniProt Q04206 1-551)
- binding: binds
